# Reference: the supplement of paper PMC12819154, “High-throughput peptide-centric local stability assay extends protein–ligand identification to membrane proteins, tissues and bacteria” (Nature Structural & Molecular Biology, 2025)
# Chains of the proteins cited; added tags and fusions are not shown. Lines headed by an entry give the natural chain unless they say otherwise; changes in a name come on top.
# UniProt Q9UK61: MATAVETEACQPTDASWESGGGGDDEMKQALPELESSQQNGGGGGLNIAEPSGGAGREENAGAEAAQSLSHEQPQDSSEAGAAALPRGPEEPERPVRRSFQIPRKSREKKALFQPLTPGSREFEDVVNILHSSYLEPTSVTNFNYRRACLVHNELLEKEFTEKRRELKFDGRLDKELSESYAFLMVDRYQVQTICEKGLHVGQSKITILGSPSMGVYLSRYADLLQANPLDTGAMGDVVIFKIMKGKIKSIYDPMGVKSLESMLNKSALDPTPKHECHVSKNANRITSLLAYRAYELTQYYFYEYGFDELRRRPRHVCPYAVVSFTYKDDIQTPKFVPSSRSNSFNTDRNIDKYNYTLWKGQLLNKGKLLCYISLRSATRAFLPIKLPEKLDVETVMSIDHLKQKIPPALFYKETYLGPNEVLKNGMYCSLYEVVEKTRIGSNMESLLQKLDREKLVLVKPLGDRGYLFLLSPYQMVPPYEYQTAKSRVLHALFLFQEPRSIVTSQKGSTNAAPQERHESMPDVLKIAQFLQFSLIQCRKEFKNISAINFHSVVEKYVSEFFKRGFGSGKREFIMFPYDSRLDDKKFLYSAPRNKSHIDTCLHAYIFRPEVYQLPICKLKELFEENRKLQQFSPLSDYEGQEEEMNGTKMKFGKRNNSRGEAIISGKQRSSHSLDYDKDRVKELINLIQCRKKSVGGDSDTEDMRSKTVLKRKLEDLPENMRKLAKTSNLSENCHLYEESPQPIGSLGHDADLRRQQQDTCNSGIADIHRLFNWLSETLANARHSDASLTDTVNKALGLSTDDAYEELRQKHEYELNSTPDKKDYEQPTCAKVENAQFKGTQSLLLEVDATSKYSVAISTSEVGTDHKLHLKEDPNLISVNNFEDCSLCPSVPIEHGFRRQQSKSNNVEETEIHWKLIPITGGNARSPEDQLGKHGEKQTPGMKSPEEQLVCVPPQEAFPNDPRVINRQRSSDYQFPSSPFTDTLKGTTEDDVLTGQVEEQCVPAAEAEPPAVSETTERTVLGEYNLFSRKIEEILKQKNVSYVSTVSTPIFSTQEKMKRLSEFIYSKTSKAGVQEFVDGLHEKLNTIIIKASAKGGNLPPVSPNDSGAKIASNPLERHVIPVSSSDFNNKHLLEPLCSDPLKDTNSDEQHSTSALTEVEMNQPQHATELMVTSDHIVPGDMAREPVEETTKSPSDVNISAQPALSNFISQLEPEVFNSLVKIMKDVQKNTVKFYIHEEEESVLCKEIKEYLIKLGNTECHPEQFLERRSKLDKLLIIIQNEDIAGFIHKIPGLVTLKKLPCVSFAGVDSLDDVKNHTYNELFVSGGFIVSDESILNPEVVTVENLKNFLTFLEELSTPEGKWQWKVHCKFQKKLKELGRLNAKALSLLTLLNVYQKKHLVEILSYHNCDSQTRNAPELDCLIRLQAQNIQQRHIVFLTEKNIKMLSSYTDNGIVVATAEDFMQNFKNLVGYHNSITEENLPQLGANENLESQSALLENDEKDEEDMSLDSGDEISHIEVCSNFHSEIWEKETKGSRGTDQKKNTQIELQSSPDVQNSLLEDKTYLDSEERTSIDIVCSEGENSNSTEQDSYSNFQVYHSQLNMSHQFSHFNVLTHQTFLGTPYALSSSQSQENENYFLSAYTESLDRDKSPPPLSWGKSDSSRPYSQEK
# UniProt Q9UHD8: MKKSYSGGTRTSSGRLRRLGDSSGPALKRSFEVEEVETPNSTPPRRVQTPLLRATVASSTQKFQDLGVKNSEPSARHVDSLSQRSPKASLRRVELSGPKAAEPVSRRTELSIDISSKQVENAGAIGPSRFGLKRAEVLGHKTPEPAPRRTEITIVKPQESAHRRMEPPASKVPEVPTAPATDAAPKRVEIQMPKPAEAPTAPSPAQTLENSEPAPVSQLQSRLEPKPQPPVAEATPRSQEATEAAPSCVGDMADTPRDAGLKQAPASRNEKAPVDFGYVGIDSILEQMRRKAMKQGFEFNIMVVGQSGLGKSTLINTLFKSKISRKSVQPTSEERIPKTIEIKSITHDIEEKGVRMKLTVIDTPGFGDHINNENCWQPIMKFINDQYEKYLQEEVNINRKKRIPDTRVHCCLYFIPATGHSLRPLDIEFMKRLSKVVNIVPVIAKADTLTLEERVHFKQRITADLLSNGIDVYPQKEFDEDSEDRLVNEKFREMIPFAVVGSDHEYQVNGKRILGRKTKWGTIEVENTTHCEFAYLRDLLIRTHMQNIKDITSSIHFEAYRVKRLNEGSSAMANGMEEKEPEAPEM
# UniProt Q9P243: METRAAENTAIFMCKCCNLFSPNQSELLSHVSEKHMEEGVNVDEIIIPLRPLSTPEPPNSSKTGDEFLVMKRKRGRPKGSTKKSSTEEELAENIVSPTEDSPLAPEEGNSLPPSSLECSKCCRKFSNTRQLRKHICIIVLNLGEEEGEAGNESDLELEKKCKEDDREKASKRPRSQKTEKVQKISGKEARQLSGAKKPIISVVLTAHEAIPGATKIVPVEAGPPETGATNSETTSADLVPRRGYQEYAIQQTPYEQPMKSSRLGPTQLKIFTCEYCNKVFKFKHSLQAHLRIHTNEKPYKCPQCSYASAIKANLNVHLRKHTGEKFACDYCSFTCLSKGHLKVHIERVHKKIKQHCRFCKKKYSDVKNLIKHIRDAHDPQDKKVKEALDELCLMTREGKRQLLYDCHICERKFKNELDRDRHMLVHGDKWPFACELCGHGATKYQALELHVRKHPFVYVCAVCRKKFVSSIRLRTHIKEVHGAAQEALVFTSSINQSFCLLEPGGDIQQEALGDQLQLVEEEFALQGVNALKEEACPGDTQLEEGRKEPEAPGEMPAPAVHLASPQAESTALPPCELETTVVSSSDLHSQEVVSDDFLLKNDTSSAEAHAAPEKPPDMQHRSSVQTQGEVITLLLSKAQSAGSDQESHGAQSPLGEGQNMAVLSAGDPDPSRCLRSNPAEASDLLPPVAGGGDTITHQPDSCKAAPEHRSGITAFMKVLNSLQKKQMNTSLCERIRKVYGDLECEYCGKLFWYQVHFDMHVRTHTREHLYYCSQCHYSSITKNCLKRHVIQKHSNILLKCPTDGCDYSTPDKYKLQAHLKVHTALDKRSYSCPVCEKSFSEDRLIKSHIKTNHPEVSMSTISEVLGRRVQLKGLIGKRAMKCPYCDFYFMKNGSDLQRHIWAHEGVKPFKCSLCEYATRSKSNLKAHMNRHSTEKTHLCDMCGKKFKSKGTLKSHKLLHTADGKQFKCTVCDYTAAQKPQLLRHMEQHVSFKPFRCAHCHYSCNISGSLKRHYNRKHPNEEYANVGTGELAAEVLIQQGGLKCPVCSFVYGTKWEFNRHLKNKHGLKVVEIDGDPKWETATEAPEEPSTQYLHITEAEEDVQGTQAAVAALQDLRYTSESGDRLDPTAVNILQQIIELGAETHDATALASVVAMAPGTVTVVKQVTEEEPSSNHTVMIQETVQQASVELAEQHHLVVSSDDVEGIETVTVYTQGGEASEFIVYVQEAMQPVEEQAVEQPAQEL
# UniProt Q9P202: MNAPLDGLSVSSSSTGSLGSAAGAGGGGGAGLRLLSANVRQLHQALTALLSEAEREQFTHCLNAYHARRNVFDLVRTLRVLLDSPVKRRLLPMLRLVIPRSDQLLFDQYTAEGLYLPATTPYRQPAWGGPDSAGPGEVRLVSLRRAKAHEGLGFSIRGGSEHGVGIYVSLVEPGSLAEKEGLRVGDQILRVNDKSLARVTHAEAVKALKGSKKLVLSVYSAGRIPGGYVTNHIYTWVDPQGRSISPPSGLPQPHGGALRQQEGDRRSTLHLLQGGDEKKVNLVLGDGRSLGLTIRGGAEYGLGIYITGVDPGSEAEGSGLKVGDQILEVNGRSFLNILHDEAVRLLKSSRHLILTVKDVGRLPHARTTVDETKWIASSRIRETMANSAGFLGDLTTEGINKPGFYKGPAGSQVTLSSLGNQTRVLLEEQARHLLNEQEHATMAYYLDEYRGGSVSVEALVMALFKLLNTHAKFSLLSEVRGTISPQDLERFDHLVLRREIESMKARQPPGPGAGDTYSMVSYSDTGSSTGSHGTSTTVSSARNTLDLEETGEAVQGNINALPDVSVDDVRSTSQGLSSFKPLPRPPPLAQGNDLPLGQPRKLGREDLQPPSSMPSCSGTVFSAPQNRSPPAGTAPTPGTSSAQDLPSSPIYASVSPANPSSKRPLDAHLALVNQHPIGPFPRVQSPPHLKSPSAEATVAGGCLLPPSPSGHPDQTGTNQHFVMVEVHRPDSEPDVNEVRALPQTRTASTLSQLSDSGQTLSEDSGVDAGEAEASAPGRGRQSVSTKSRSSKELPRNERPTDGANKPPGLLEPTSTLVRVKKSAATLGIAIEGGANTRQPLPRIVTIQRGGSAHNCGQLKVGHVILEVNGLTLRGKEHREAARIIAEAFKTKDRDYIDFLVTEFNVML
# UniProt Q9P253: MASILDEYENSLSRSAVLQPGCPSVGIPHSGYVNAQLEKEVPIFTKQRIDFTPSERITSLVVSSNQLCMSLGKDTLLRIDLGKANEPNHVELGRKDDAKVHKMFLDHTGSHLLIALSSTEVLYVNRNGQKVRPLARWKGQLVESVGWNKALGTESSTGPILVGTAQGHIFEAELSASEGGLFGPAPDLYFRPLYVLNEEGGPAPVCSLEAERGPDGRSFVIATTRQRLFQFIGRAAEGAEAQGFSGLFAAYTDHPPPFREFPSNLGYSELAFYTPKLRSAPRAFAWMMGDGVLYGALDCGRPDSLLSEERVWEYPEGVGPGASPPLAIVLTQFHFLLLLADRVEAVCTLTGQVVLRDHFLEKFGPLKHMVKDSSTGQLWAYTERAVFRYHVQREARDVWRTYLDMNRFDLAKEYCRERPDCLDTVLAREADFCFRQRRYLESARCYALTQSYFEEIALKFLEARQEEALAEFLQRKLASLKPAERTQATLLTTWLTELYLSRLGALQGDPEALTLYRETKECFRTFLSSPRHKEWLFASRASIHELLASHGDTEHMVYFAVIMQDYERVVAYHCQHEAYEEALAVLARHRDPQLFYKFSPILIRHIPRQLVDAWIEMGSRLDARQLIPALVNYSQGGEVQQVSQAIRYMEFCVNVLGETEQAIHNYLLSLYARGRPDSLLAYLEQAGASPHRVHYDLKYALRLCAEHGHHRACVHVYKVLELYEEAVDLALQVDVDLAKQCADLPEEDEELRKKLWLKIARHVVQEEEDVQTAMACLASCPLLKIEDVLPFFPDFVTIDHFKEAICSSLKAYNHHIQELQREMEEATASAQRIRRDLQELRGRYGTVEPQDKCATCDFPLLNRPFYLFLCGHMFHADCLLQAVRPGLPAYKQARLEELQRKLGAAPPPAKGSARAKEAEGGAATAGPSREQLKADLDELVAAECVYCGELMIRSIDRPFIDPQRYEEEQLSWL
# UniProt Q9NZV7: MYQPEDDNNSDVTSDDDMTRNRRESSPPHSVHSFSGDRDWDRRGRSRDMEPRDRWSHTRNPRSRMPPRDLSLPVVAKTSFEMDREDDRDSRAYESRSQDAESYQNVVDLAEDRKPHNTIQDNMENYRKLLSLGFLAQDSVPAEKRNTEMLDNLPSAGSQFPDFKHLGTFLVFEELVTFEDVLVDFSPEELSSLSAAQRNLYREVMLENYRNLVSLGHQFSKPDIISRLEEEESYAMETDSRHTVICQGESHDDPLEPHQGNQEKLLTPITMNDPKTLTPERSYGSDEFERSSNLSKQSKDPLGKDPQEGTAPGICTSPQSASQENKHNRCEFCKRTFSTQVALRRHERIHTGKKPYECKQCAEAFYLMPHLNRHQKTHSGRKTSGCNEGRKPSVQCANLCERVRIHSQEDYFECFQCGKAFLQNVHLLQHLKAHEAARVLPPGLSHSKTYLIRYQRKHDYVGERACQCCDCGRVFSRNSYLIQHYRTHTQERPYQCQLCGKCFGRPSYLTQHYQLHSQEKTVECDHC
# UniProt Q9UIY3: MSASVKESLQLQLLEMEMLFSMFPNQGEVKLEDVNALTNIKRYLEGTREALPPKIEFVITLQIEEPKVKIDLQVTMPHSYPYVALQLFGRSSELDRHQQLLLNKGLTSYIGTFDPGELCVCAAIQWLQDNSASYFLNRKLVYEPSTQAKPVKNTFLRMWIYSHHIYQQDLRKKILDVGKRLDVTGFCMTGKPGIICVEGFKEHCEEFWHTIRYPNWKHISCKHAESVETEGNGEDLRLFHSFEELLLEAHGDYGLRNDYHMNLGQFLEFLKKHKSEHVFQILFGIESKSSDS
# UniProt Q9UET6: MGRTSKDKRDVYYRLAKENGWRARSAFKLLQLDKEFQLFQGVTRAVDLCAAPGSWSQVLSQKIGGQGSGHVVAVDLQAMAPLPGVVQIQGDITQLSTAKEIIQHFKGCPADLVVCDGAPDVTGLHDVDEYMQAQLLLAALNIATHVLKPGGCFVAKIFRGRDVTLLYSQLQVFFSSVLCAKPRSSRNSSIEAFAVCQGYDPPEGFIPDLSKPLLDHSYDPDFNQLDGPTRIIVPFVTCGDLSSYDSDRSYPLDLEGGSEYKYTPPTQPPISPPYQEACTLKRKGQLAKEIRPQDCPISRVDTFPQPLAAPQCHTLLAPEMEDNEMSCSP
# This is one part of the list. Most values lie at the level of the controls, where differences are scatter.
# Compound: CN[C@@H]1C[C@H]2O[C@@](C)([C@@H]1OC)n1c3ccccc3c3c4c(c5c6ccccc6n2c5c31)C(=O)NC4 [staurosporine]
# Experiment: log2 fold change of tryptic peptide abundance, ligand vs vehicle (limited proteolysis) (log2 ratio); higher = more trypsin-susceptible (destabilized)
# Conditions: ligand concentration: 20 uM; sample: K562 cleared lysate; digestion: 4 min, 22 C (HT-PELSA RT4min, Orbitrap Astral)
row,Target,log2 fold change
1,"UniProt Q9UK61 (peptide sequence: TVLGEYNLFSR, peptide start residue: 1020)",-0.701
2,"UniProt Q9UHH9 (peptide sequence: CQQSTSAVIGVR, peptide start residue: 244)",0.724
3,"UniProt Q9UHD8 (peptide sequence: TEITIVKPQESAHR, peptide start residue: 150)",-0.217
4,"ZFAT (peptide sequence: KPIISVVLTAHEAIPGATK, peptide start residue: 197) (UniProt Q9P243)",-0.275
5,"UniProt Q9P202 (peptide sequence: RPLDAHLALVNQHPIGPFPR, peptide start residue: 663)",0.183
6,"VPS18 (peptide sequence: AKEAEGGAATAGPSR, peptide start residue: 915) (UniProt Q9P253)",-0.555
7,"UniProt Q9NZV7 (peptide sequence: EVMLENYR, peptide start residue: 51)",-0.157
8,"RWDD2A (peptide sequence: HKSEHVFQILFGIESK, peptide start residue: 273) (UniProt Q9UIY3)",-0.403
9,"MED13 (peptide sequence: VWQECNMNR, peptide start residue: 379) (UniProt Q9UHV7)",0.233
10,"MRPL35 (peptide sequence: EFVFCNK, peptide start residue: 146) (UniProt Q9NZE8)",0.308
11,"FTSJ1 (peptide sequence: AVDLCAAPGSWSQVLSQK, peptide start residue: 45) (UniProt Q9UET6)",0.362
